Measurements: patent publication US20120283193A1, “MANIPULATION OF BRAIN IN A CIRCUIT-SPECIFIC MANNER” (priority 2009, published 2012)
At least one compound was matched to its structure with a doubt left.

Test system: Xenopus larvae
Assay: Skin pigmentation adaptation to illumination/background in larvae
Format: in vivo
Conditions: D1 receptor agonist and antagonist; opposite effect to the D2 ligands
Method: Illumination experiments. The optimal condition for altering skin pigmentation and numbers of TH neurons were determined by raising larvae under two illumination conditions. In the first, larvae were placed on black, grey or white backgrounds (corresponding to N2.25, N7.25 or N9.5 on the Munsell neutral value scale of a monochromatic colour wheel) with constant illumination (331 lux (lx)). In the second, larvae on a white, grey or black background were exposed to constant illumination (6,560 lx, measured with a light meter (Sper Scientific)-equivalent to shady illumination on a sunny day), or to constant dark or to 12 h light/12 h dark. […] For some tests of the functional significance of newly TH neurons, animals were raised under different light/background conditions and a conditioning step of 30 min light/white background exposure was imposed to achieve similar levels of skin pigmentation before comparing light or dark adaptation between these groups.
Neuropharmacology. […] For selective ablation of VSCDA neurons, MPTP was bath-applied in the dark to larvae for 8 h at stage 41. 100 mM deprenyl (Sigma) was bath-applied to inhibit monoamine oxidase.

## CN1CCc2cc(Cl)c(O)cc2[C@@H](c2ccccc2)C1 [SCH23390]
  effect on pigmentation behaviour: lightening
